The supplement of paper PMC6078165

Tested on: BT20
Assay: relative JC-1 red fluorescence (viability) vs pre-drug, coculture with fibroblast (fraction); higher = more viable cancer cells
Method: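 JC-1 labelled TNBC cells cocultured 1:1 (1,500 cells each) with CellTrace Violet stained primary or stromal fibroblasts in 384-well plates in FluoroBrite medium, treated with one of 42 anticancer drugs at 0.1, 1, 10 or 100 uM. JC-1 red fluorescence (mitochondrial integrity in cancer cells only) was read by plate reader every 8 h for 72 h. Values are normalised to each well's pre-drug value. The stock of one drug was tenfold lower, so its dose labels may be too high.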

CC(C)(C#N)c1cc(Cn2cncn2)cc(C(C)(C)C#N)c1 [Anastrozole]
relative JC-1 red fluorescence
Details	8 h	16 h	24 h	32 h	40 h	48 h	56 h	64 h	72 h
0.1 µM, coculture fibroblast: C12385	0.932	0.86	0.788	0.728	0.65	0.599	0.562	0.525	0.504
0.1 µM, coculture fibroblast: H6013	0.9083	0.8467	0.821	0.77	0.738	0.714	0.72	0.704	0.686
0.1 µM, coculture fibroblast: H6019	0.83	0.76	0.737	0.67738	0.629	0.602	0.574	0.566	0.552
0.1 µM, coculture fibroblast: H6076	0.885	0.896	0.782	0.737	0.6891	0.652	0.637	0.62	0.604
0.1 µM, coculture fibroblast: H6231	0.752	0.926	0.815	0.743	0.7	0.638	0.59	0.5655	0.546
0.1 µM, coculture fibroblast: HADF	0.879	0.8921	0.8248	0.806	0.765	0.7097	0.698	0.679	0.647
0.1 µM, coculture fibroblast: HCFa	0.891	0.841	0.8057	0.7399	0.6877	0.647	0.609	0.576	0.53
0.1 µM, coculture fibroblast: HCPF	0.954	0.8628	0.8082	0.769	0.733	0.696	0.651	0.659	0.632
0.1 µM, coculture fibroblast: HHSteC	0.9287	0.861	0.8	0.718	0.655	0.61	0.58	0.554	0.522
0.1 µM, coculture fibroblast: HMF	0.9352	–	0.74	0.662	0.623	0.575	0.541	0.508	0.483
0.1 µM, coculture fibroblast: HPFa	0.953	0.821	0.775	0.689	0.645	0.599	0.555	0.513	0.467
0.1 µM, coculture fibroblast: HUF	0.9122	0.819	0.771	0.692	0.635	0.591	0.557	0.529	0.515
0.1 µM, coculture fibroblast: Hs5	0.786	0.922	0.859	0.818	0.77	0.737	0.706	0.67	0.636
0.1 µM, coculture fibroblast: Hs27A	0.807	0.933	0.824	0.95	0.91	0.904	0.895	0.874	0.836
0.1 µM, coculture fibroblast: Hs343T	0.9751	0.8692	0.772	0.72	0.66	0.615	0.578	0.564	0.533
0.1 µM, coculture fibroblast: WS1	0.84968	0.745	0.681	0.609	0.54	0.498	0.4659	0.4428	0.432
1 µM, coculture fibroblast: C12385	0.899	0.816	0.757	0.694	0.647	0.616	0.592	0.5691	0.5537
1 µM, coculture fibroblast: H6013	0.955	0.8787	0.825	0.788	0.742	0.726	0.717	0.697	0.685
1 µM, coculture fibroblast: H6019	0.865	0.8	0.7958	0.7564	0.7192	0.708	0.678	0.66	0.645
1 µM, coculture fibroblast: H6076	0.962	0.911	0.842	0.812	0.777	0.756	0.741	0.732	0.713
1 µM, coculture fibroblast: H6231	0.781	0.904	0.809	0.739	0.702	0.652	0.612	0.589	0.557
1 µM, coculture fibroblast: HADF	0.9869	0.9232	0.8283	0.782	0.747	0.715	0.705	0.689	0.668
1 µM, coculture fibroblast: HCFa	0.92	0.822	0.832	0.778	0.729	0.697	0.666	0.641	0.593
1 µM, coculture fibroblast: HCPF	0.849	0.89	0.816	0.776	0.739	0.695	0.647	0.629	0.592
1 µM, coculture fibroblast: HHSteC	0.919	0.852	0.858	0.777	0.724	0.697	0.672	0.651	0.628
1 µM, coculture fibroblast: HMF	0.85	0.9094	0.794	0.736	0.676	0.626	0.591	0.564	0.539
1 µM, coculture fibroblast: HPFa	0.958	0.886	0.897	0.801	0.78	0.732	0.712	0.682	0.632
1 µM, coculture fibroblast: HUF	0.9154	0.801	0.737	0.655	0.588	0.54	0.509	0.475	0.459
1 µM, coculture fibroblast: Hs5	0.898	0.88	0.8328	0.782	0.747	0.717	0.685	0.658	0.623
1 µM, coculture fibroblast: Hs27A	0.869	0.913	0.889	0.897	0.853	0.839	0.815	0.791	0.734
1 µM, coculture fibroblast: Hs343T	0.905	0.845	0.753	0.688	0.621	0.573	0.515	0.481	0.44
1 µM, coculture fibroblast: WS1	0.87736	0.79007	0.713	0.648	0.585	0.552	0.51	0.477	0.461

Values are relative to the signal before dosing, not to a vehicle control; the signal also falls without drug.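 Fibroblast labels denote human fibroblasts, mainly primary ones from uterus (C12385, HUF), lung (H6013), bone (Hs27A), adrenal (HADF) and skin (WS1), plus mammary HMF and breast cancer-associated Hs343T. Cancer cells are basal-like or mesenchymal-like triple-negative breast cancer lines. A hit is a response shift exceeding 3x replicate standard deviation. The tissue of the other fibroblasts is not given here.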
